# From PubChem BioAssay AID1347076 (National Center for Advancing Translational Sciences (NCATS), 2019)
# Among all 400,000 compounds or so, about 13,000 (3.2%) were called active. This list was built around the results that the source calls inconclusive (neither active nor inactive); the mix of calls is not that of the screen. Calls follow the shape of the dose curve; as a rule, active = well fitted cell-killing curve with a large enough effect; inconclusive = small, poorly fitted or top-dose-only effect, or effect the other way; inactive = flat fitted curve, though single readings scatter. Potencies of inconclusive entries are doubtful fits and often do not repeat.
# Assay: qHTS assay for MDR1-selective chemotherapeutics: Primary screen using the drug-selected MDR subline cells KB-V1; also: nearly all actives have a fitted effect of over 60% in size
# Conditions: KB-V1 MDR cells viability, CellTiter-Glo, 72 h; activity change, negative = cytotoxicity: at 46.1 µM (top of the series)
# Summary of the method: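 Cells of the MDR subline KB-V1 are plated, dosed with compound at multiple concentrations, and incubated 72 h at 37 degrees C; CellTiter-Glo is then added and luminescence read after 10 min.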
# % is scaled to controls: 0 for no effect and ±100 for the full control effect; potency is read from the fitted curve at half-maximal effect.
SMILES,Potency,"activity change, negative = cytotoxicity"
CCCN1Cc2cccc(C(=O)Nc3cc(C)cc(C)c3)c2C1=O,inactive,
CC(C)=CCC/C(C)=C/CC/C(C)=C/COc1ccc2ccc(=O)oc2c1,"inconclusive: 18.4 µM [rising, partial curve, poor fit]",
Cc1cccc(NS(=O)(=O)c2ccc(C(=O)NCC(c3ccco3)N3CCCCC3)cc2)c1C (stereo not given),"inconclusive: 8.2 µM [cytotoxic, partial curve, poor fit]",
Cc1snc(S(=O)(=O)/C(C#N)=N\Nc2ccccc2)c1C#N,inactive,
COc1ccc(Cc2nc3c4c(ncn3n2)Oc2c(ccc3ccccc23)C4c2ccc(OC)c(OC)c2)cc1 (stereo not given),"inconclusive: 6.51 µM [cytotoxic, full curve]",
COC(=O)c1ccccc1Sc1c(/C=N/OCc2ccc(Cl)cc2)c(C(F)(F)F)nn1C,"inconclusive: 20.6 µM [cytotoxic, single point]",
OCCC1CN(Cc2cnn(-c3ccccc3Cl)c2)CCN1Cc1ccsc1 (stereo not given),"inconclusive: 11.6 µM [cytotoxic, partial curve]",
Cc1ccc(S(=O)(=O)NC(CC(=O)NC2CCCC2)c2ccco2)cc1 (stereo not given),"inconclusive: 11.6 µM [cytotoxic, partial curve]",
COc1ccc(Cl)cc1NC(=O)CCC(=O)N1CCOc2ccccc21,inactive,
COc1cc(SC)ccc1C(=O)NCCCOC(C)C,"inconclusive: 16.4 µM [cytotoxic, single point]",
Cc1cc(-c2ccc(S(=O)(=O)N3CCCCC3)s2)on1,inactive,
CC(=O)Nc1ccc(OCCOc2ccc(/C=C3/C(=N)N4C=CSC4=NC3=O)cc2)cc1,inactive,
O=S(=O)(c1ccccc1)c1nc(NC2CC2)sc1Cl,"inconclusive: 18.4 µM [cytotoxic, single point]",
CC1CCN(C(=O)C2CCCN(S(=O)(=O)c3ccc4c(c3)CC(C)N4C(=O)C3CC3)C2)CC1 (stereo not given),"inconclusive: 2.59 µM [cytotoxic, partial curve, poor fit]",
O=C(c1ccc2nc[nH]c2c1)N1CCN(c2cccc(C(F)(F)F)c2)CC1,inactive,
CCN(c1ccccc1)S(=O)(=O)c1ccc(C(=O)Nc2nnc(COC)o2)cc1,"inconclusive: 2.06 µM [cytotoxic, full curve, poor fit]",
Cc1cc(C)cc(NC(=O)CCC(=O)Nc2cc(C)on2)c1,inactive,
COc1ccc(CCNC(=O)c2cc(-c3ccncc3)nc3c(Cl)cccc23)cc1OC,active: 23.1 µM,
COc1cc(/C=C(/C(=O)O)c2ccc(-c3ccccc3)cc2)cc(OC)c1OC,"inconclusive: 29.1 µM [cytotoxic, single point]",
O=C(c1cc(COc2ccc(F)cc2F)on1)N1CCSCC1,inactive,
O=c1[nH]cc(COCc2ccccc2)c(=O)[nH]1,"inconclusive: 35.5 µM [cytotoxic, single point]",
O=C(NCCCN1CCOCC1)c1ccco1,"inconclusive: 5.8 µM [rising, partial curve]",
CCC(c1nnnn1-c1ccc2c(c1)OCCO2)N1CCN(C(=O)c2ccco2)CC1 (stereo not given),"inconclusive: 9.2 µM [cytotoxic, partial curve]",

# One compound at a time, as listed above:
# COc1cc(SC)ccc1C(=O)NCCCOC(C)C as listed: Potency: inconclusive: 16.4 µM [cytotoxic, single point]
# CCN(c1ccccc1)S(=O)(=O)c1ccc(C(=O)Nc2nnc(COC)o2)cc1 as listed: Potency: inconclusive: 2.06 µM [cytotoxic, full curve, poor fit]
# COc1ccc(CCNC(=O)c2cc(-c3ccncc3)nc3c(Cl)cccc23)cc1OC as listed: Potency: active: 23.1 µM

# (more compounds)

SMILES,Potency,"activity change, negative = cytotoxicity"
COc1ccc(C(=O)C2C(=O)C(=O)N(Cc3ccco3)C2c2cccs2)cc1 (stereo not given),"inconclusive: 23.1 µM [rising, single point]",
CC1CN(C(=O)c2cc3cc([N+](=O)[O-])ccc3s2)CC(C)O1 (stereo not given),,inconclusive: -73.8%
COc1ccc(NC(=O)C2(C)Cc3c(-c4cccc(NC(C)=O)c4)ccnc3O2)cc1OC (stereo not given),inactive,
CCn1nc(C)c([N+](=O)[O-])c1C(=O)NNC(=O)c1ccccc1Cl,"inconclusive: 0.731 µM [rising, full curve, poor fit]",
CCCC(NC(=O)c1c(C)noc1C)C12CC3CC(CC(C3)C1)C2 (stereo not given),"inconclusive: 13 µM [cytotoxic, partial curve, poor fit]",
Cc1ccc(S(=O)(=O)NCC(=O)N(c2ccccc2)C(C(=O)NCc2ccccc2)c2ccco2)cc1 (stereo not given),active: 2.31 µM,
O=C(Nc1nnc([C@@H]2C[C@H](O)[C@@H](CO)O2)s1)Nc1ccccc1Oc1ccccc1,inactive,
Cc1ccc(S(=O)(=O)N2CCC(C(=O)N3CCN(c4ccccn4)CC3)CC2)cc1C,"inconclusive: 16.4 µM [cytotoxic, partial curve]",
CCOC(=O)c1cc(CC)sc1NC(=O)COC(=O)c1ccccn1,inactive,
CC(C)Cc1nc2oc3c(=O)[nH]cnc3c2c2c1CCCC2,active: 18.4 µM,
CCNc1nc(NCc2ccccc2)nc(SCC(=O)Nc2ccccc2)n1,active: 2.31 µM,
CCCCOc1ccc(S(=O)(=O)NC(=O)C2(C)CCN2C(=O)Cc2cccs2)cc1 (stereo not given),inactive,
CCC(C)Sc1ccc([C@H]2N[C@@](C)(C(=O)OC)[C@H]3C(=O)N(C)C(=O)[C@@H]23)cc1OC (stereo not given in full),"inconclusive: 2.59 µM [rising, full curve, poor fit]",
Nc1c(N2CCCC2)c2ccccc2oc1=O,inactive,
COc1ccc(NC(C)=O)cc1NC(=O)CSc1nnc(-c2ccccn2)n1C,"inconclusive: 8.2 µM [rising, partial curve, poor fit]",
CC(Oc1nc2c(c(=O)n(C)c(=O)n2C)n1C)C1CCCCC1 (stereo not given),"inconclusive: 20.6 µM [cytotoxic, partial curve, poor fit]",
Cc1cccc(NC(=O)Nc2cccc(F)c2)n1,"inconclusive: 16.4 µM [cytotoxic, partial curve, poor fit]",
CCn1c(=O)c(=O)n(CC)c2cc(N3CCCCC3)c(NC(=O)c3cccc(F)c3)cc21,inactive,
COc1cc2c(cc1OC)C(CNC(=O)C=Cc1cc(OC)c(OC)c(OC)c1)C2 (stereo not given),inactive,
COc1ccc(/C=N/Nc2ncnc3scc(-c4ccccc4)c23)cc1OC,inactive,
CCOC(=O)C1(Cc2cccc(Cl)c2)CCCN(C(=O)c2cc(C)[nH]n2)C1 (stereo not given),"inconclusive: 20.6 µM [cytotoxic, partial curve]",
COc1ccc(C(=O)COC(=O)c2c(-c3ccccc3)noc2C)c(OC)c1,"inconclusive: 10.3 µM [cytotoxic, partial curve]",
